Laboratory results: PubChem BioAssay AID1259254 (NCATS, 2017)
The whole screen tested about 59,000 reagents; this is an unselected part. About 1,550 of them (2.6%) were called active. 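G2 share is only a proxy for re-replication; each gene was hit by three separate siRNAs, and active genes were retested.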 Raw values are not corrected between plates. Unmarked entries are inactive. Reagents against one gene are numbered here. The record does not give: the amount of reagent.

- Aim: 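Finding genes that stop cells copying their DNA twice in one cycle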 (primary screen)
- Cells: human HCT116 colorectal cancer cells
- Reagent: single siRNA against human genes
- Timing: 3 days
- Measured: 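Imaged Hoechst DNA stain sorts each cell into a cycle phase by DNA amount; per plate, G2 fraction set to 0% for non-targeting and 100% for GMNN siRNA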
- Scale: G2 robust z-score and G2 cells, % of GMNN control: higher = more G2 cells, more excess DNA replication; raw share of cells in G2: higher = larger share of cells with G2 DNA content
- Rule for the call: 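Active siRNAs have a G2 robust z of 5 or more median absolute deviations over the median, which in these data means about 38% or higher of GMNN control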

The opening 2 entries, ahead of the listing:
gene	reagent	G2 robust z-score	G2 cells, % of GMNN control	raw share of cells in G2 (%)
LDLRAP1 (low density lipoprotein receptor adaptor protein 1)	1	0.126	3.86	5.86
LDLRAP1 (low density lipoprotein receptor adaptor protein 1)	2	-0.195	1.6	4.63

The listing, from the start:
gene	reagent	G2 robust z-score	G2 cells, % of GMNN control	raw share of cells in G2 (%)
LDLRAP1 (low density lipoprotein receptor adaptor protein 1)	1	0.126	3.86	5.86
LDLRAP1 (low density lipoprotein receptor adaptor protein 1)	2	-0.195	1.6	4.63
LDLRAP1 (low density lipoprotein receptor adaptor protein 1)	3	-0.667	-1.73	2.69
ASF1B (anti-silencing function 1B histone chaperone)	1	0.998	9.99	8.36
ASF1B (anti-silencing function 1B histone chaperone)	2	-0.0862	2.36	5.12
ASF1B (anti-silencing function 1B histone chaperone)	3	3.62	28.4	12.2
LINC01376 (long independently transcribed non-coding RNA 1376)	1	4.22	32.7	15.7
LINC01376 (long independently transcribed non-coding RNA 1376)	2	-0.0263	2.78	4.62
LINC01376 (long independently transcribed non-coding RNA 1376)	3	-0.341	0.57	5.03
ZNF808 (zinc finger protein 808)	1	2.74	22.2	11.3
ZNF808 (zinc finger protein 808)	2	1.96	16.7	8.84
ZNF808 (zinc finger protein 808)	3	1.78	15.5	8.53
ADPRS (ADP-ribosylserine hydrolase)	1	0.593	7.14	6.16
ADPRS (ADP-ribosylserine hydrolase)	2	0.848	8.93	8.03
ADPRS (ADP-ribosylserine hydrolase)	3	2.94	23.6	11
TLCD1 (TLC domain containing 1)	1	-0.997	-4.05	2.47
TLCD1 (TLC domain containing 1)	2	-0.239	1.29	3.71
TLCD1 (TLC domain containing 1)	3	-0.215	1.45	2.24
SERPINB5 (serpin family B member 5)	1	-1.07	-4.55	2.13
SERPINB5 (serpin family B member 5)	2	0.445	6.1	6.78
SERPINB5 (serpin family B member 5)	3	3.08	24.6	11.7
CCDC141 (coiled-coil domain containing 141)	1	-0.172	1.76	4.28
CCDC141 (coiled-coil domain containing 141)	2	2.58	21.1	11.2
CCDC141 (coiled-coil domain containing 141)	3	-0.0355	2.72	4.09
HMX2 (H6 family homeobox 2)	1	0.658	7.6	8.58
HMX2 (H6 family homeobox 2)	2	0.43	6	6.4
HMX2 (H6 family homeobox 2)	3	-0.0625	2.53	5.96
NDUFAF5 (NADH:ubiquinone oxidoreductase complex assembly factor 5)	1	1.35	12.4	10
NDUFAF5 (NADH:ubiquinone oxidoreductase complex assembly factor 5)	2	-0.247	1.23	5.16
NDUFAF5 (NADH:ubiquinone oxidoreductase complex assembly factor 5)	3	1.3	12.1	5.89
